These results are taken from paper PMC8894927, “Oxylipin signaling in salt-stressed soybean is modulated by ligand-dependent interaction of Class II acyl-CoA-binding proteins with lipoxygenase” (The Plant Cell, 2021).

Molecules are shown by their SMILES.

This data set concerns (His)6-GmACBP4.1_33–354. Description: Isothermal titration calorimetry of acyl-CoA binding (WT protein). On the set-up: species or system soybean. The conditions noted are these: ITC at 25°C, mean ± SD, three experiments; for n, stoichiometry (number of ligand sites per protein): 15 μM protein titrated with 200 μM acyl-CoA. The method, then:
ITC was conducted with a MicroCal iTC200 system (GE Healthcare) at 25°C in 10 mM sodium phosphate (pH 7) by 20 injections of 1.8-μL acyl-CoAs (200 μM; Avanti Polar Lipids Inc., Alabaster, AL, USA) into the sample cell with 15 μM purified (His)6-GmACBP4.1. Each injection lasted 4 s at 150-s intervals with a stirring speed of 1,000 rpm. Nonspecific heat effects were estimated and corrected after saturation. The baseline was adjusted, and the data were fitted into a single-site binding model using the Origin version 7.0 software (OriginLab).
Supplemental Table 1. Binding constants and thermodynamic parameters for (His)6-GmACBP4.133–354 interaction with acyl-CoAs. (Supports Figure 5A) […]
Isothermal titration calorimetry analysis was performed by titration of 250 μL of 15 μM (His)6-GmACBP4.133–354 with […]
from three independent experiments. n, stoichiometry (number of ligand sites per protein); KD, dissociation constant; ∆H, enthalpy change; −T∆S, entropy change; ∆G, Gibbs free energy.
(In general: In ITC the heat of successive injections is recorded.)

On to `CCCCCCCCCCCCCCCC(=O)SCCNC(=O)CCNC(=O)[C@H](O)C(C)(C)COP(=O)(O)OP(=O)(O)OC[C@H]1O[C@@H](n2cnc3c(N)ncnc32)[C@H](O)[C@@H]1OP(=O)(O)O` [C16:0-CoA], for which the “n, stoichiometry (number of ligand sites per protein)” value came to 1.08 ± 0.02; the “∆H, enthalpy change” value was -4.00 ± 0.09 kcal/mol; the “−T∆S, entropy change” value is -4.30 ± 0.28 kcal/mol.
In the case of `CC/C=C\C/C=C\C/C=C\CCCCCCCC(=O)SCCNC(=O)CCNC(=O)[C@H](O)C(C)(C)COP(=O)(O)OP(=O)(O)OC[C@H]1O[C@@H](n2cnc3c(N)ncnc32)[C@H](O)[C@@H]1OP(=O)(O)O` [C18:3-CoA, linolenoyl-CoA], the “n, stoichiometry (number of ligand sites per protein)” value is on record as 1.14 ± 0.03; the “∆G, Gibbs free energy” value was -8.09 ± 0.46 kcal/mol; the “∆H, enthalpy change” value was -3.73 ± 0.15 kcal/mol; the “−T∆S, entropy change” value is -4.36 ± 0.31 kcal/mol.
`CCCCCCCC/C=C\CCCCCCCC(=O)SCCNC(=O)CCNC(=O)[C@H](O)C(C)(C)COP(=O)(O)OP(=O)(O)OC[C@H]1O[C@@H](n2cnc3c(N)ncnc32)[C@H](O)[C@@H]1OP(=O)(O)O` [C18:1-CoA]: the “n, stoichiometry (number of ligand sites per protein)” value is given as 1.22 ± 0.02; the “∆G, Gibbs free energy” value was -8.42 ± 0.50 kcal/mol; the “∆H, enthalpy change” value was -4.10 ± 0.08 kcal/mol; the “−T∆S, entropy change” value was -4.32 ± 0.42 kcal/mol.
On to `CCCCC/C=C\C/C=C\CCCCCCCC(=O)SCCNC(=O)CCNC(=O)[C@H](O)C(C)(C)COP(=O)(O)OP(=O)(O)OC[C@H]1O[C@@H](n2cnc3c(N)ncnc32)[C@H](O)[C@@H]1OP(=O)(O)O` [C18:2-CoA, linoleoyl-CoA], for which the “n, stoichiometry (number of ligand sites per protein)” value is reported as 1.03 ± 0.02; the “∆G, Gibbs free energy” value was -8.22 ± 0.43 kcal/mol; the “∆H, enthalpy change” value was -4.58 ± 0.11 kcal/mol; the “−T∆S, entropy change” value is -3.64 ± 0.32 kcal/mol.
